{"source": "paper PMC8351955", "about": "“Targeting Mycobacterium tuberculosis response to environmental cues for the development of effective antitubercular drugs” (PLoS Biology, 2021)", "system": "macrophage phagosomal [Cl−] in BMDMs", "experiment": "Phagosomal maturation assay, BAC/AF594 beads (Cl− readout)", "type": "cell-based, mouse", "protocol": "Carboxyfluorescein (pH readout), DQ-BSA/Alexa Fluor 594 (AF594) (proteolysis readout), and BAC/AF594 (Cl^− readout) beads were generated essentially as previously described, except that 10,10′-Bis[3-carboxylpropyl]-9,9′-biacridinium dinitrate di-NHS ester (BAC-SE) was purchased from emp Biotech LLC. BMDMs were isolated from C57BL/6J mice (The Jackson Laboratory) and maintained as described above. […] Assay buffer consisted of PBS (pH 7.2), supplemented with 5% FBS, 5 mM dextrose, 1 mM CaCl2, 2.7 mM KCl, and 0.5 mM MgCl2 in the case of assays with the carboxyfluorescein or DQ-BSA/AF594 beads. For assays with the BAC/AF594 beads, assay buffer consisted of PBS (pH 7.2), supplemented with 5% FBS, 5 mM dextrose, 1 mM calcium acetate, 1.35 mM K2SO4, and 0.5 mM MgSO4 [9]. Sensor beads at approximately 2 to 5 beads/macrophage in appropriate assay buffer were finally added, with data acquisition on a Biotek Synergy H1 microplate reader with bottom read signal detection started within 2 to 3 minutes of bead addition. Excitation/emission wavelengths were 450 nm/520 nm and 490 nm/520 nm for carboxyfluorescein, 490 nm/520 nm for DQ-BSA, 365 nm/505 nm for BAC, and 590 nm/617 nm for AF594. Each experiment was run with a total of 3 to 5 replicate wells/condition, with temperature maintained at 37°C throughout the assay. Wells were read every 2 minutes for 2 hours for the carboxyfluorescein bead assays, every 2 minoutes for 4 hours for the DQ-BSA/AF594 bead assays, and every 1 minute for 2 hours for the BAC/AF594 bead assays. Analyses of the results were performed as previously described.", "note": "“And” between values parts separate entries of the source, which are not always exact repeats. Equal entries are not always repeated. Further values from the same series stand in other lists.", "data": [{"smiles": "CCSc1ncc(CN2CCN(c3nc4ccccc4o3)CC2)cn1", "note": "[C6, 2-(4-((2-(ethylthio)pyrimidin-5-yl)methyl)piperazin-1-yl)benzo[d]oxazole]", "values": [{"measurement": "AF594/BAC fluorescence, replicates", "setting": "Time 23 minutes", "result": "0.5942 and 0.6218 and 0.6389 and 0.6135 and 0.6215"}, {"measurement": "AF594/BAC fluorescence, replicates", "setting": "Time 24 minutes", "result": "0.6352 and 0.6194 and 0.6515 and 0.6198 and 0.6401"}, {"measurement": "AF594/BAC fluorescence, replicates", "setting": "Time 25 minutes", "result": "0.6147 and 0.6096 and 0.6494 and 0.5986 and 0.642"}, {"measurement": "AF594/BAC fluorescence, replicates", "setting": "Time 26 minutes", "result": "0.6159 and 0.6483 and 0.6554 and 0.6055 and 0.6301"}, {"measurement": "AF594/BAC fluorescence, replicates", "setting": "Time 27 minutes", "result": "0.6061 and 0.6359 and 0.6514 and 0.6041 and 0.6221"}, {"measurement": "AF594/BAC fluorescence, replicates", "setting": "Time 28 minutes", "result": "0.6371 and 0.6305 and 0.6466 and 0.6288 and 0.6471"}, {"measurement": "AF594/BAC fluorescence, replicates", "setting": "Time 29 minutes", "result": "0.6665 and 0.642 and 0.6575 and 0.6119 and 0.6485"}, {"measurement": "AF594/BAC fluorescence, replicates", "setting": "Time 30 minutes", "result": "0.6196 and 0.6438 and 0.6647 and 0.5987 and 0.6421"}, {"measurement": "AF594/BAC fluorescence, replicates", "setting": "Time 31 minutes", "result": "0.6188 (2×) and 0.6383 and 0.6363 and 0.6442"}, {"measurement": "AF594/BAC fluorescence, replicates", "setting": "Time 32 minutes", "result": "0.6271 and 0.6428 and 0.6703 and 0.6113 and 0.6394"}, {"measurement": "AF594/BAC fluorescence, replicates", "setting": "Time 33 minutes", "result": "0.6323 and 0.6506 and 0.68 and 0.6106 and 0.6675"}, {"measurement": "AF594/BAC fluorescence, replicates", "setting": "Time 34 minutes", "result": "0.6405 and 0.6553 (3×) and 0.638"}, {"measurement": "AF594/BAC fluorescence, replicates", "setting": "Time 35 minutes", "result": "0.6125 and 0.6563 and 0.6594 and 0.6063 and 0.6614"}, {"measurement": "AF594/BAC fluorescence, replicates", "setting": "Time 36 minutes", "result": "0.6326 and 0.6542 and 0.68 and 0.6263 and 0.6609"}, {"measurement": "AF594/BAC fluorescence, replicates", "setting": "Time 37 minutes", "result": "0.6414 and 0.6472 and 0.6487 and 0.6393 and 0.664"}, {"measurement": "AF594/BAC fluorescence, replicates", "setting": "Time 38 minutes", "result": "0.6675 and 0.6506 and 0.6576 and 0.6143 and 0.6698"}, {"measurement": "AF594/BAC fluorescence, replicates", "setting": "Time 39 minutes", "result": "0.635 and 0.649 and 0.651 and 0.6353 and 0.6387"}, {"measurement": "AF594/BAC fluorescence, replicates", "setting": "Time 40 minutes", "result": "0.6519 and 0.6497 and 0.6598 and 0.6333 and 0.6591"}, {"measurement": "AF594/BAC fluorescence, replicates", "setting": "Time 41 minutes", "result": "0.6481 and 0.6488 and 0.6778 and 0.6436 and 0.6477"}, {"measurement": "AF594/BAC fluorescence, replicates", "setting": "Time 42 minutes", "result": "0.6322 and 0.657 and 0.6501 and 0.6432 and 0.6668"}, {"measurement": "AF594/BAC fluorescence, replicates", "setting": "Time 43 minutes", "result": "0.6484 and 0.6312 and 0.6896 and 0.658 and 0.6347"}, {"measurement": "AF594/BAC fluorescence, replicates", "setting": "Time 44 minutes", "result": "0.6128 and 0.6532 and 0.6729 and 0.646 and 0.6441"}, {"measurement": "AF594/BAC fluorescence, replicates", "setting": "Time 45 minutes", "result": "0.6459 and 0.6392 and 0.6647 and 0.6364 and 0.6426"}, {"measurement": "AF594/BAC fluorescence, replicates", "setting": "Time 47 minutes", "result": "0.6406 and 0.6548 and 0.6738 and 0.646 and 0.6436"}, {"measurement": "AF594/BAC fluorescence, replicates", "setting": "Time 49 minutes", "result": "0.6469 and 0.6323 and 0.649 and 0.6444 and 0.6786"}, {"measurement": "AF594/BAC fluorescence, replicates", "setting": "Time 51 minutes", "result": "0.6427 and 0.6576 and 0.6543 and 0.6018 and 0.6494"}, {"measurement": "AF594/BAC fluorescence, replicates", "setting": "Time 53 minutes", "result": "0.6356 and 0.6518 and 0.647 and 0.6274 and 0.6456"}, {"measurement": "AF594/BAC fluorescence, replicates", "setting": "Time 55 minutes", "result": "0.64 and 0.6439 and 0.6519 and 0.6434 and 0.6509"}, {"measurement": "AF594/BAC fluorescence, replicates", "setting": "Time 57 minutes", "result": "0.6711 and 0.6509 and 0.6563 and 0.6483 and 0.6531"}, {"measurement": "AF594/BAC fluorescence, replicates", "setting": "Time 59 minutes", "result": "0.634 and 0.6589 and 0.6622 and 0.6255 and 0.6562"}, {"measurement": "AF594/BAC fluorescence, replicates", "setting": "Time 61 minutes", "result": "0.6155 and 0.6354 and 0.6681 and 0.6259 and 0.6558"}, {"measurement": "AF594/BAC fluorescence, replicates", "setting": "Time 63 minutes", "result": "0.6372 and 0.6415 and 0.6498 and 0.6333 and 0.6527"}, {"measurement": "AF594/BAC fluorescence, replicates", "setting": "Time 65 minutes", "result": "0.6549 and 0.6388 and 0.6632 and 0.6431 and 0.6709"}, {"measurement": "AF594/BAC fluorescence, replicates", "setting": "Time 67 minutes", "result": "0.6638 and 0.6522 and 0.667 and 0.6368 and 0.66"}, {"measurement": "AF594/BAC fluorescence, replicates", "setting": "time 46 minutes", "result": "0.6361 and 0.6528 and 0.6588 and 0.6111 and 0.6601"}, {"measurement": "AF594/BAC fluorescence, replicates", "setting": "time 48 minutes", "result": "0.6342 and 0.6441 and 0.6594 and 0.6198 and 0.6542"}, {"measurement": "AF594/BAC fluorescence, replicates", "setting": "time 50 minutes", "result": "0.6279 and 0.6539 and 0.6768 and 0.6291 and 0.6258"}, {"measurement": "AF594/BAC fluorescence, replicates", "setting": "time 52 minutes", "result": "0.6309 and 0.6339 and 0.6597 and 0.6233 and 0.6708"}, {"measurement": "AF594/BAC fluorescence, replicates", "setting": "time 54 minutes", "result": "0.6454 and 0.6419 and 0.6866 and 0.6249 and 0.6685"}, {"measurement": "AF594/BAC fluorescence, replicates", "setting": "time 56 minutes", "result": "0.6284 (2×) and 0.6467 and 0.6776 and 0.6667"}, {"measurement": "AF594/BAC fluorescence, replicates", "setting": "time 58 minutes", "result": "0.6298 and 0.6407 and 0.6825 and 0.6278 and 0.6807"}, {"measurement": "AF594/BAC fluorescence, replicates", "setting": "time 60 minutes", "result": "0.6395 and 0.6365 and 0.6537 and 0.6304 and 0.6457"}, {"measurement": "AF594/BAC fluorescence, replicates", "setting": "time 62 minutes", "result": "0.6336 and 0.6342 and 0.6557 and 0.6408 and 0.6478"}, {"measurement": "AF594/BAC fluorescence, replicates", "setting": "time 64 minutes", "result": "0.6573 and 0.6448 and 0.6683 and 0.6109 and 0.6674"}, {"measurement": "AF594/BAC fluorescence, replicates", "setting": "time 66 minutes", "result": "0.6324 and 0.6485 and 0.6665 and 0.615 and 0.6452"}]}]}
